PubChem BioAssay AID1259308, NCATS – 2017

- Aim: 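Knock-downs that increase output of a recombinant reporter protein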 (primary screen)
- System: human HEK293 embryonic kidney cells stably expressing firefly luciferase (HEK-CMV-Luc2-Hygro)
- Reagents: single siRNA against human genes, 0.8 pmol siRNA per well
- Timing: 72 h
- Read-out: 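Reporter luminescence and viable-cell signal on separate replicate plates, given as percent of non-targeting control and median/MAD z-scores, plus per-cell luciferase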
- Direction: total luciferase, z-score: higher = more reporter protein produced
- Active means: 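An siRNA counts as active if its total luciferase robust z-score exceeds 3; genes with two or more such siRNAs out of three were retested with fresh siRNAs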
- Meaning of the calls: active = raised luciferase; inactive = no rise
In all, the deposit lists about 59,000 reagents; shown is a random part of them. About 1,510 of them (2.6%) were called active. 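Calls use total luciferase alone and ignore viability, so some active siRNAs may act by altering cell number.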 The numbers tell different reagents against one gene apart. Further read-outs or replicates are left out here. Reagent sequences are not shown.

total luciferase, z-score, by target gene and reagent
NDUFB6: #1 -1.83 inactive; #2 0.52 inactive; #3 -0.6 inactive
RCN3: #1 -0.429 inactive; #2 5.21 active; #3 -1.05 inactive
TSPYL5: #1 1.29 inactive; #2 0.806 inactive; #3 -0.923 inactive
LLGL2: #1 -0.633 inactive; #2 0.534 inactive; #3 4.02 active
TOMM20: #1 -0.289 inactive; #2 0.489 inactive; #3 0.58 inactive
ADAMTS12: #1 -2.1 inactive; #2 -0.408 inactive; #3 -0.639 inactive
TBX3: #1 1.11 inactive; #2 -1.18 inactive; #3 -0.805 inactive
OSTF1: #1 -0.335 inactive; #2 0.922 inactive; #3 -0.953 inactive
